This is an account of results in patent publication US20240189279A1, “IMMUNOMODULATORY COMPOSITIONS AND METHODS OF USE THEREOF” (THE TEXAS A&M UNIVERSITY SYSTEM, priority 2022, published 2024).

The subject of series [1] is liver proteome. Briefly: Liver untargeted proteomics in WD mice. The format is in vivo, mice (male B6 129SF1/J). The note with it: WD-100 vs WD groups.
The subject of series [2] is fecal metabolome. Description: Fecal untargeted metabolomics in WD mice. The format is in vivo, mice (male B6 129SF1/J).

As for `O=C([O-])Cc1c[nH]c2ccccc12.[Na+]` [I3A, Indole-3-acetate sodium salt], the “number of significantly enriched KEGG pathways” value in series [1] was found to be 5 pathways. Further, the “effect on fecal microbiota composition and metabolome (overall)” value in series [2] (WD fed mice treated with I3A) was “minimal effects on the fecal microbiota composition as well as metabolome”. Further, in series [2] (WD-50 vs WD groups), the “fecal metabolome, Hotelling's T2 test of means (centroids)” value is given as “not significantly different”. Also, the “fecal metabolome (PCA of untargeted LC-MS data)” value in series [2] (WD-100 vs WD groups) was “largely overlapped”.
